Laboratory results reported in patent US20040086535A1, “Novel antiviral acitivities of primate theta defensins and mammalian cathelicidins” (priority 2001, published 2004).
Not every detail of the peptide structures is certain; ends, links or a residue may be inferred. No end group written: not given here.

Tested on: EIAV (MA-1 strain) in equine dermal cell line ED
Assay: EIAV infectivity, immunostaining of antigen-expressing cells at 40 h
Type: cell-based, equine infectious anemia virus

| Substance | decrease of EIAV infectious titers (10 μg/ml, 40 h post infection (FIG. 3)) | anti-viral activity of amino-terminal peptides (qualitative) (EIAV, FIG. 3A) |
| --- | --- | --- |
| KNLRRIIRKIIHIIKKYG [Ov-2, KNLRRIIRKIIHIIKKYG] | more than 90% | – |
| LRRIIRKIIHIIKK-NH2 [Ov-3, LRRIIRKIIHIIKK-NH2] | – | no effect |
